Reference: PMC5785033
Results are given in words; binding and its absence hold for the method and conditions named. Binding seen in cells or lysates may run through a third protein. Some results given as binding are weak or reduced against the parent protein; the word gives no strength. For some assays here: Where a sequence is shown, tags or fusion partners need not be part of it.

T1: MORC2A (mouse (endogenous in testis)) (UniProt Q69ZX6)
T1 sequence: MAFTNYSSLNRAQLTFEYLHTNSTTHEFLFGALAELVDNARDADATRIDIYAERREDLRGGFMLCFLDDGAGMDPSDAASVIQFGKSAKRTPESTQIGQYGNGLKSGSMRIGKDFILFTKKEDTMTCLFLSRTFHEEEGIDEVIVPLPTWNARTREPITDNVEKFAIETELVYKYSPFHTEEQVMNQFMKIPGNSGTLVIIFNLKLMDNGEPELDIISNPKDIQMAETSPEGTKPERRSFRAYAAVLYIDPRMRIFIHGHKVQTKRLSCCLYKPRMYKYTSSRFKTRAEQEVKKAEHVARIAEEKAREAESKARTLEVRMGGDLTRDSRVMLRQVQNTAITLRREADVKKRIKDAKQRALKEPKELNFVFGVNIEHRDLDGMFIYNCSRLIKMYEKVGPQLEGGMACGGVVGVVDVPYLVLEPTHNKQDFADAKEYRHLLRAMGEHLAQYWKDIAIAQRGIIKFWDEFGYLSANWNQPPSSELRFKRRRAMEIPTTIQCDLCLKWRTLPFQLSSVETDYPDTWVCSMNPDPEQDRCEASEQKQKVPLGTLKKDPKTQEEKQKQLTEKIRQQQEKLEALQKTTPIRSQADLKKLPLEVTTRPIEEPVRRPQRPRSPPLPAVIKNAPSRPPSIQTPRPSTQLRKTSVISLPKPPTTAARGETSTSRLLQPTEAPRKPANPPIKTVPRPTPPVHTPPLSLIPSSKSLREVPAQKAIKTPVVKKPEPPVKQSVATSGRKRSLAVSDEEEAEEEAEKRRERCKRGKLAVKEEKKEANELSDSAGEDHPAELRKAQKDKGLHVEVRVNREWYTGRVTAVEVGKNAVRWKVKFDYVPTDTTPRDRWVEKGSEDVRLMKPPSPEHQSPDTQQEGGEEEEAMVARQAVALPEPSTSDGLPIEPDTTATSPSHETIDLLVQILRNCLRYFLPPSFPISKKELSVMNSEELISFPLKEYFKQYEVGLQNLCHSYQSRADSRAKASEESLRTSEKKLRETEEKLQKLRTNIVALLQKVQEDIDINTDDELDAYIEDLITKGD

T2: tagged MORC2B (pcDNA3.1/V5-His-TOPO) (mouse) (UniProt Q8C5W4)
T2 sequence: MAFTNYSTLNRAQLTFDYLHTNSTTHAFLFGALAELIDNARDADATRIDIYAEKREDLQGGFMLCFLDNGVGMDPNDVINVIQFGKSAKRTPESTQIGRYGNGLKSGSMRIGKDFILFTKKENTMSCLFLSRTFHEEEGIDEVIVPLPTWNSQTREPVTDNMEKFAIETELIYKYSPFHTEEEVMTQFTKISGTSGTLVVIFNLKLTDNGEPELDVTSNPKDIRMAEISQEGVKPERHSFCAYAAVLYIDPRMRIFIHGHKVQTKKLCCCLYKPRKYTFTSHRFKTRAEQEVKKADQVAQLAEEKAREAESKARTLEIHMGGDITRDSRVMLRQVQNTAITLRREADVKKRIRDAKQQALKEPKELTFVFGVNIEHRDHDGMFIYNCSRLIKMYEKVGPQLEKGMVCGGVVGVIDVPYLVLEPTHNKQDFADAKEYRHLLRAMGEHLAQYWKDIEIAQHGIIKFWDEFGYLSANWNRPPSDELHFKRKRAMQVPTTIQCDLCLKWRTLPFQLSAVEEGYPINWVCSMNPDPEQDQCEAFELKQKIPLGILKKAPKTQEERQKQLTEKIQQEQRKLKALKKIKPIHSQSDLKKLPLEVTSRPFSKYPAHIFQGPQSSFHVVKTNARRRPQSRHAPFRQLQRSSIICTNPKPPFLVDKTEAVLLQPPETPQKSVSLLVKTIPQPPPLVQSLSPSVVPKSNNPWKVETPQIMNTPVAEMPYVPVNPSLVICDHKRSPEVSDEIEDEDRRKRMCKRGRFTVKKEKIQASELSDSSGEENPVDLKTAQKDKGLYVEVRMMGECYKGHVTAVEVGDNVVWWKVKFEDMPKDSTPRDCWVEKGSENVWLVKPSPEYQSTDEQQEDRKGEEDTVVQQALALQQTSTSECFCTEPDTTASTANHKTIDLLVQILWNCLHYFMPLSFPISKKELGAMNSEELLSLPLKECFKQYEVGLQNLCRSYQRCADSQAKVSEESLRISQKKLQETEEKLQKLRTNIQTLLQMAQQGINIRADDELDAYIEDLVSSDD

B1: MORC2B (protein, UniProt Q8C5W4-1 1-1022)
chain: T2 sequence
B2: tagged MORC2A (pcDNA3.1/myc-His) (protein, UniProt Q69ZX6 1-1030)
chain: T1 sequence

Columns and labels:
[1] = biological target: T1, MORC2A (mouse (endogenous in testis)); test: co-IP; PND20 testicular protein extracts; IP with anti-MORC2A antibody, western blot for MORC2B
[2] = biological target: T2, tagged MORC2B (pcDNA3.1/V5-His-TOPO) (mouse); test: co-IP; tagged MORC2A and MORC2B co-expressed in HEK 293T cells; lysis in 50 mM HEPES pH 7.5, 140 mM NaCl, 1 mM DTT, 10% glycerol, 0.5% NP-40; IP with anti-V5 antibody, western blot with anti-Myc antibody

Row | Binder | binding [1] | binding [2]
1 | B1 | binds | –
2 | B2 | – | binds
